Measurements from doi:10.1101/808782.
Results are given in words; binding and its absence hold for the method and conditions named. In cells and extracts the contact can be indirect. Some binding calls cover weakened binding; strength is not graded here.

Chains of the proteins cited; added tags and fusions are not shown. Lines headed by an entry give the natural chain unless they say otherwise; changes in a name come on top.
UniProt P60953: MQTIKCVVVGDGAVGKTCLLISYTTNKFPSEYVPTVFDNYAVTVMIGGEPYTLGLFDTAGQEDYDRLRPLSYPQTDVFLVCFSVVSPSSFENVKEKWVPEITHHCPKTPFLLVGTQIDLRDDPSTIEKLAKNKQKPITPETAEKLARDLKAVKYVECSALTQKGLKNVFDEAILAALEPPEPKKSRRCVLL

How the values were obtained:
[1] = molecular target: GFP-tagged wild-type Cdc42 (human) (UniProt P60953); assay: co-IP
[2] = molecular target: GFP-tagged Cdc42 C188S (human) (UniProt P60953); assay: co-IP

binding [1]: binds | binding [2]: no binding
B1: GDP dissociation inhibitor GDI1 (protein, UniProt P52565 1-204)
chain: MAEQEPTAEQLAQIAAENEEDEHSVNYKPPAQKSIQEIQELDKDDESLRKYKEALLGRVAVSADPNVPNVVVTGLTLVCSSAPGPLELDLTGDLESFKKQSFVLKEGVEYRIKISFRVNREIVSGMKYIQHTYRKGVKIDKTDYMVGSYGPRAEEYEFLTPVEEAPKGMLARGSYSIKSRFTDDDKTDHLSWEWNLTIKKDWKD
